Among all 360,000 compounds or so, about 10,000 (2.8%) were called active. The shares of active, inactive and inconclusive entries below differ from those in the screen. The call rests on the fitted dose curve; in most records, active means well fitted inhibition curve with a large enough effect; inconclusive means small, poorly fitted or top-dose-only effect; inactive means flat fitted curve, though single readings scatter. Potencies of inconclusive entries are doubtful fits and often do not repeat.
What follows are compounds tested against Serine/threonine-protein kinase PLK1 (Homo sapiens) (UniProt P53350) (assay: qHTS for Inhibitors of PLK1-PDB (polo-like kinase 1 - polo-box domain): Primary Screen). Settings: Plk1 PBD binding of FITC phosphopeptide, fluorescence polarization.
Further: nearly all actives have a fitted effect of over 65% in size.
On the % scale 0 is the no-effect control and ±100 the full control effect; potency means the concentration at half of the fitted maximal effect.
Wherever max response, negative = inhibition is given: series mostly up to about 57 µM.

Sequences of proteins named here, by UniProt entry; tags and fusion partners are left off.
UniProt P53350, whole entry, looked up: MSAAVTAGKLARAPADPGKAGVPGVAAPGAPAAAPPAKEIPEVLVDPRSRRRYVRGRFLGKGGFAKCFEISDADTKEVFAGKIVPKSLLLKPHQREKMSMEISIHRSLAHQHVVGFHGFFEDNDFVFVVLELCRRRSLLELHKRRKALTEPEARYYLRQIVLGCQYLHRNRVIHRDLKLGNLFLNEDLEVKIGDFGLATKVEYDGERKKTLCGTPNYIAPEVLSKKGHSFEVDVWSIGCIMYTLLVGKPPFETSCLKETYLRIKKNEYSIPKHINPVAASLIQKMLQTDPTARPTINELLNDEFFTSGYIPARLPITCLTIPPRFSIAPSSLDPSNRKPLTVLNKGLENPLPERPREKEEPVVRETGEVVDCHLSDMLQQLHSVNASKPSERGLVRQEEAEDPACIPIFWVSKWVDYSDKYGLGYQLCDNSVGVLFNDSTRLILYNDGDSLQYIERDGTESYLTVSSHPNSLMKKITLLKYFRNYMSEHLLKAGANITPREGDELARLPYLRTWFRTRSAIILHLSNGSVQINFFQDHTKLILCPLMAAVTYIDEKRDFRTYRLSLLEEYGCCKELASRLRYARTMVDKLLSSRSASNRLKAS

| SMILES | Potency | max response, negative = inhibition |
| --- | --- | --- |
| COC(=O)CSc1nnc(CNc2nc(-c3ccccc3)cs2)n1C | inconclusive: 18.9 µM [inhibitor, partial curve] |  |
| Cc1ccc2nc(-c3ccncc3)[nH]c2c1 |  | inactive: 7.63% |
| COc1ccc(-n2nnnc2SCC(=O)Nc2ccc(OC)cc2OC)cc1 |  | inactive: 1.28% |
| O=C(COc1ccccc1)NNC(=S)NC(=O)c1ccccc1 | inconclusive: 26.7 µM [inhibitor, single point] |  |
| O=C(CSc1nccn(-c2ccc(F)c(Cl)c2)c1=O)NC1CCCC1 | inconclusive: 21.2 µM [inhibitor, partial curve] |  |
| Cc1ccc(C(C)C)cc1S(=O)(=O)NCc1cccnc1 |  | inactive: -11.8% |
| COc1ccc(C(=O)NC(=S)NNC(=O)c2cccc(C)c2)cc1 | inconclusive: 23.8 µM [inhibitor, partial curve] |  |
| O=C(O/N=C1\CCCCC1c1ccc([N+](=O)[O-])cc1[N+](=O)[O-])c1c(F)cccc1F (stereo not drawn) | inconclusive: 26.7 µM [inhibitor, single point] |  |
| CC1CCCN(c2nc3ccccc3nc2C(C#N)S(=O)(=O)c2cccs2)C1 (stereo not drawn) | inconclusive: 26.7 µM [inhibitor, partial curve] |  |
| CCCn1c(SCC(=O)Nc2cccc(C)n2)nc2c1c(=O)n(C)c(=O)n2C | inconclusive: 29.9 µM [inhibitor, single point] |  |
| O=S1(=O)CC(N2CC=CC2)CN1Cc1ccccc1 (stereo not drawn) |  | inactive: -10.7% |
| N#C/C(=N\Nc1ccc(S(=O)(=O)N2CCOCC2)cc1)C(N)=S | inconclusive: 29.9 µM [inhibitor, partial curve] |  |
| COc1cc(C)c(C(=O)Oc2cc(C)c(C(=O)O)c(O)c2C)c(O)c1C | inconclusive: 23.8 µM [inhibitor, single point] |  |
| O=C(NC(=S)NC1CCCc2ccccc21)c1ccc(F)cc1 (stereo not drawn) | inconclusive: 18.9 µM [inhibitor, partial curve] |  |
| CC1CCN(C(=O)c2ncn(C)c2C(=O)N2CCC(C)CC2)CC1 |  | inconclusive: -30.7% [inhibitor] |
| CC(=O)NC1=NN(C(C)=O)C2(S1)C(=O)N(C(C)=O)c1ccc(C)cc12 (stereo not drawn) | active: 26.7 µM |  |
| COc1ccc(-c2sc(Nc3ccc(F)c(F)c3F)nc2CCC(=O)NN)cc1 |  | inactive: -1.11% |
| COc1ccccc1/C=C/C=N/NC(=O)c1cc(-c2ccco2)[nH]n1 | inconclusive: 29.9 µM [inhibitor, partial curve] |  |
| Cc1cc(SCC(=O)Nc2c(C)n(C)n(-c3ccccc3)c2=O)nc2ccccc12 | inconclusive: 23.8 µM [inhibitor, single point] |  |
| COc1cccc(C(=O)NCCCc2ccccc2)c1OC | inconclusive: 29.9 µM [inhibitor, single point] |  |
| CCCn1c(=N)c(C(=O)NCC2CCCO2)cc2c(=O)n3cccc(C)c3nc21 (stereo not drawn) | inconclusive: 29.9 µM [inhibitor, partial curve] |  |
| O=C(CN1C(=O)NC2(CCCCC2)C1=O)Oc1ccc2c(C(F)(F)F)cc(=O)oc2c1 | inconclusive: 18.9 µM [inhibitor, partial curve] |  |

Of the compounds above, these contain two or more sulfur atoms:

| SMILES | Potency | max response, negative = inhibition |
| --- | --- | --- |
| COC(=O)CSc1nnc(CNc2nc(-c3ccccc3)cs2)n1C | inconclusive: 18.9 µM [inhibitor, partial curve] |  |
| CC1CCCN(c2nc3ccccc3nc2C(C#N)S(=O)(=O)c2cccs2)C1 (stereo not drawn) | inconclusive: 26.7 µM [inhibitor, partial curve] |  |
| N#C/C(=N\Nc1ccc(S(=O)(=O)N2CCOCC2)cc1)C(N)=S | inconclusive: 29.9 µM [inhibitor, partial curve] |  |

Later entries

| SMILES | Potency | max response, negative = inhibition |
| --- | --- | --- |
| NC(=S)Nc1cccc2cc3ccccc3cc12 | inconclusive: 11.9 µM [inhibitor, partial curve] |  |
| CCCCC(=O)N(C)c1c(C)nc2ccc(C(=O)NCc3ccccc3OC)cn12 |  | inactive: -1.5% |
| NNC(=O)c1sc2cc(C(F)(F)F)cnc2c1-c1ccccn1 |  | inactive: -3.35% |
| O=C(O)c1cc(N/N=C/c2ccc(N3CCOCC3)s2)ccc1Cl | inconclusive: 23.8 µM [inhibitor, single point] |  |
| CC(C)COC(=O)Nc1nnc(Cc2ccccc2)s1 | inconclusive: 37.7 µM [inhibitor, single point] |  |
| O=C(O)Cn1c2c(c3ccccc31)CSc1ccc(Cl)cc1-2 | active: 13.4 µM |  |
| CN1CC=C2C(C#N)=C(N)C(C#N)(C#N)C(Cc3ccccc3)C2C1 (stereo not drawn) |  | inconclusive: -30.3% [inhibitor] |
| COC(=O)c1ccc(NC(=S)NNC(=O)c2ccccc2)cc1 | inconclusive: 16.8 µM [inhibitor, partial curve] |  |
| O=C(O)c1ccc(S(=O)(=O)N(CCc2ccccc2)Cc2ccc(Cl)cc2)cc1 | inconclusive: 29.9 µM [inhibitor, partial curve] |  |
| O=C(NCc1cccnc1)c1ccc(S(=O)(=O)N2CCCCC2)cc1 | inconclusive: 23.8 µM [inhibitor, partial curve] |  |
| Cc1ccc(CN2CCC(NC(=O)c3ccccc3)CC2)cc1 | active: 29.9 µM |  |
| COc1cc(C(=O)NC(C(=O)Nc2cccc(C(C)=O)c2)C(C)C)cc(OC)c1OC (stereo not drawn) | inconclusive: 26.7 µM [inhibitor, partial curve] |  |
| COc1cc2c(ccc3cc(OC)c(OC)c(O)c32)cc1O |  | inconclusive: -32.4% [inhibitor] |
| O=C(CNC(=O)c1nc[nH]c1C(=O)NCc1ccccc1)OCc1ccccc1 |  | inactive: -9.86% |
| Cc1ccc(S(=O)(=O)Cc2ccc(C(=O)N3CCN(c4cc(C)ccc4C)CC3)o2)cc1 | inconclusive: 59.7 µM [inhibitor, partial curve, poor fit] |  |
| c1ccc(CSc2ccc(-c3cccs3)nn2)nc1 | inconclusive: 21.2 µM [inhibitor, partial curve] |  |
| CCC1(C)Cc2c(sc3nnn(CC(=O)Nc4ccccc4)c(=O)c23)CO1 (stereo not drawn) |  | inconclusive: -33.6% [inhibitor] |
| O=C(NCCN1C(=O)S/C(=C\c2cccc(Cl)c2Cl)C1=O)C1=COCCO1 | inconclusive: 23.8 µM [inhibitor, partial curve] |  |
| CCOC(=O)C(NC(=O)c1ccccc1Cl)(Nc1sc2c(c1C(N)=O)CCC2)C(F)(F)F (stereo not drawn) | inconclusive: 23.8 µM [inhibitor, single point] |  |
| COc1cc(/C=N\NC(=O)c2c(C)nc3cc(C)ccn23)ccc1O | inconclusive: 21.2 µM [inhibitor, partial curve] |  |
| CCCN1CCN(CCCNC(=O)c2cc3c(=O)oc4ccc(C)cc4c3s2)CC1 |  | inactive: -0.926% |

From PubChem BioAssay AID720504 (National Center for Advancing Translational Sciences (NCATS), 2013)
